Results reported in patent US20250188113A1, “HIGH PURITY NON-ANIMAL DERIVED TUDCA” (SANDHILL ONE, LLC, priority 2021, published 2025).
At least one structure is not confirmed: it was looked up by name or label, or the drawing left a doubt.

Legend:
[1] = Solid form stability at 40° C. and 75% RH; format: physicochemical; conditions: XRPD pattern found after storage at 40° C. and 75% RH
[2] = One-week form stability in solvents; format: physicochemical

CC(C)(C)N.C[C@H](CCC(=O)O)[C@H]1CC[C@H]2[C@@H]3C(=O)C[C@@H]4CC(=O)CC[C@]4(C)[C@H]3CC[C@]12C [tert-Butylamine salt, tert-butylamine salt of 3,7-DKCA]
9-A: Stability at 40° C. and 75% RH [1] | One-week form stability in solvents, 2-MeTHF ([2]; XRPD pattern found after one week in 2-MeTHF) | One-week form stability in solvents, ACN:water (9:1 vol.) ([2]; XRPD pattern found after one week in ACN:water (9:1 vol.)) | One-week form stability in solvents, EtOAc ([2]; XRPD pattern found after one week in EtOAc)
